Data reported in patent US10900093B2, “Molecular marker of plasmodium falciparum artemisinin resistance” (priority 2013, dated 2021).
At least one structure is not confirmed: it was looked up by name or label, or the drawing left a doubt.

Test system: 89F5 Palo Alto Uganda
Test: Artemether treatment in the Saimiri sciureus experimental host
Assay type: in vivo, Plasmodium falciparum
Conditions: 89F5 clone of the Palo Alto line in Saimiri sciureus; unpublished data

SMILES: CO[C@H]1O[C@@H]2O[C@@]3(C)CC[C@H]4[C@H](C)CC[C@@H]([C@H]1C)[C@@]24OO3 [artemether]
- susceptibility to artemether treatment: high susceptibility
